# According to patent US7214766B2 (priority 1998, dated 2007):
# Protein sequences, listed by entry. Tags and fused reporters are not part of them. Residues count along the entry.
# UniProt P00791, 60-385: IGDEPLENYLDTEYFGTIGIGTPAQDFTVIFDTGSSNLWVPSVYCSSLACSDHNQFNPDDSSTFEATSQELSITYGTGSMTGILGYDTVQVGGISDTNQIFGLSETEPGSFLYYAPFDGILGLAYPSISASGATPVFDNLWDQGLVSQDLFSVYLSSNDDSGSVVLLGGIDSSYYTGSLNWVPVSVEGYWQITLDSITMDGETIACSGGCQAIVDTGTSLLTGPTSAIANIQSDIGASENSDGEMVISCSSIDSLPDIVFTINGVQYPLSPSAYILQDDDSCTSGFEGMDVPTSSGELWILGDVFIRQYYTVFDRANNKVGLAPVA
# Not every detail of the peptide structures is certain; ends, links or a residue may be inferred. No end group written: not given here.
# Tests used:
# [1] = biological target: T1, Pepsin (Sus scrofa, UniProt P00791); assay: Inhibition of protease digestion of fluorescent labeled casein: pepsin; format: biochemical; conditions: fluorescent labeled casein substrate
# T1 construct: purchased
# Protocol: (§1) The ability of Rev4 to inhibit four different classes of proteases was tested using fluorescent labeled casein as substrate under the following conditions:
# (§2) Each protease was incubated with substrate (5 μg/mL fluorescent labeled casein; Molecular Probes Inc., Eugene, Oreg.) and peptide in a total volume of 200 μL in a 96-well microtiter plate. Before use, papain was activated with cysteine (Arnon, 1970, Methods in Enzymology 19:226–44). After incubation at room temperature for one hour, fluorescence due to casein digestion was measured in a Luminescence Spectrometer (LS50B, Perkin Elmer Ltd., England) with an excitation wavelength of 505 nm and an emission wavelength of 513 nm. The blank control contained the substrate, buffer and peptide but lacked the protease.
# [2] = tested on: proteases present in whole cell extract (WCE); assay: Protection of Magainin 2 from degradation by WCE (Magainin 2 mixed with Rev4); format: in vitro ADME, Kentucky 14 tobacco; conditions: Magainin 2 mixed with Rev4 before addition of WCE
# Protocol: Whole cell extract (WCE) was prepared by grinding one gram of Kentucky 14 tobacco leaf tissue in liquid nitrogen, followed by extraction with 3 mL of 100 mM Tris-HCl buffer, pH 7.5, 50 mM NaCl. The mixture was clarified by spinning in a microcentrifuge (14,000 r.p.m., 5 minutes). The supernatant (WCE) was kept frozen as aliquots at −80° C. until required for an assay. Fifty micrograms of each peptide was incubated with different amounts of WCE in 50 mM Tris-HCl buffer, pH 7.5, total volume 50 microliters, for one hour at 37° C. The reaction was stopped by adding 1% trifluoroacetic acid (TFA). A sample of the reaction mixture (20 μL) was injected onto a Vydac C4 column (4.6×250 mm) in a Waters HPLC system with 515 pumps, 486 detector and Millenium software. The sample was eluted with a gradient of 0.1% TFA in water to 60% acetonitrile in 0.1% TFA. The area of the peak corresponding to the undigested peptide was integrated and compared with the equivalent peak from a 0% WCE control.
# Assays for WCE protease degradation were performed as described in Example 8 except that one of the samples represented Magainin 2 that was mixed with Rev4 before the addition of WCE. The amounts of Magainin 2 and Rev4 remaining in the mixture were determined by HPLC as described for Examples 7 and 8.
# [3] = tested on: Peronospora tabacina; assay: Tobacco blue mold spore germination assay; format: cell-based; conditions: for Spore Germination (%): 24 hours, no-peptide value 71
# Protocol: Tobacco blue mold (Peronospora tabacina) was used to compare the antifungal activity of Rev4 with that of MYP30. Spores of Peronospora tabacina were harvested from infected tobacco leaf with sterile water and washed three times. The spore suspension was diluted to 2,000 spores per mL. Peptide solution (2 μL) was added to spore suspension (48 μL) in a 96-well microtiter plate. After incubation in the dark at room temperature for 24 hours, the number of germinated spores was determined microscopically.
# The peptides described as SEQ. ID Nos. 4, 5, 6, 7 and 8 in Examples 1, 3, 4, 5 and 6 were tested for antifungal activity as described in Example 11.
# [4] = tested on: Carboxypeptidase; assay: Inhibition of protease digestion of fluorescent labeled casein: carboxypeptidase; format: biochemical; conditions: for % Inhibition of Proteolysis: carboxypeptidase 0.10 mg/mL, pH8.0
# [5] = biological target: T2, Chymotrypsin (Bos taurus, UniProt P00766); assay: Inhibition of protease digestion of fluorescent labeled casein: chymotrypsin; format: biochemical; conditions: fluorescent labeled casein substrate
# T2 construct: purchased
# Protocol: as §1, §2
# The peptides described in EXAMPLE 12 were tested for their effects on the action of chymotrypsin on casein using the methods described in EXAMPLE 10.
# [6] = tested on: Verticillium dahliae racel; assay: Minimum concentration to completely inhibit spore germination, Verticillium; format: cell-based; conditions: 5,000 spores per mL, triplicate
# Excerpt: (§3) The antifungal activity of Rev4 and related peptides was also compared using two tomato pathogens, Verticillium dahliae racel and Alternaria alternata f.sp. lycopersici. Spores were harvested from pure cultures grown on V8 medium, diluted to 5,000 spores per mL, and tested against dilution series of peptides in 96-well plates as described in U.S. Pat. No. 5,424,395.
# [7] = tested on: Alternaria alternata f.sp. lycopersici; assay: Minimum concentration to completely inhibit spore germination, Alternaria; format: cell-based; conditions: 5,000 spores per mL, triplicate
# Excerpt: as §3
substance,measurement,setting,value
"RRWPWWPWKWPLI-NH2 [Rev4, Arg Arg Trp Pro Trp Trp Pro Trp Lys Trp Pro Leu Ile]",inhibition of pepsin (in words),[1],but not pepsin
same,ability to protect Magainin 2 from degradation by WCE (in words),[2],able to confer on Magainin 2 a stability to WCE equal to that of Rev4 itself
same,antifungal potency compared with MYP30 (in words),[3]; Peronospora tabacina spore germination,significantly more potent than MYP30
same,% Germination (mean +/− sem),"[3]; final concentration of 2 μg/mL, control 76.6 +/− 11.2",3.7 +/− 3.2%
same,% Control,"[3]; germination as % of no-peptide control, 2 μg/mL",4%
same,Spore Germination (%),[3]; peptide 1 μg/mL,46%
same,Spore Germination (%),[3]; peptide 5 μg/mL,2%
same,Spore Germination (%),[3]; peptide 25 μg/mL,0%
same,Spore Germination (%),[3]; peptide 50 μg/mL,0%
same,% Inhibition of Proteolysis,[4]; Rev4 2.5 μg/ml,58%
same,% Inhibition of Proteolysis,[4]; Rev4 5 μg/ml,92%
same,% Inhibition of Proteolysis,[4]; Rev4 10 μg/ml,100%
same,% Inhibition of Proteolysis,[4]; Rev4 20 μg/ml,100%
same,inhibition of carboxypeptidase (in words),[4]; fluorescent labeled casein substrate,inhibit
same,inhibition of chymotrypsin (in words),[5],inhibit
same,minimum concentration required to completely inhibit spore germination for at least 48 hours,[6],40 µg/mL
same,minimum concentration required to completely inhibit spore germination for at least 48 hours,[7],50 µg/mL
